Counter-ions that a name gives are not always drawn. This is one part of the list. The calls rarely recur for the same compound in another form.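 Kinases were expressed as nanoluciferase fusions in K562 cells and luminescence was read every 4 h between 2 and 18 h as percent of control, DMSO set to 100% and a positive control to 0%. A time point counts as decreased when the signal drops significantly (2 sigma). The hit call is the authors' own, does not follow from the count of time points alone, and its rule is not shown.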
target: DDR1 (UniProt Q08345); experiment: kinase-Nluc reporter destabilization hit call (1 = scored as downregulated) (binary); higher = compound decreases kinase abundance; conditions: K562; 2-18 h

Chains of the proteins cited; added tags and fusions are not shown. Lines headed by an entry give the natural chain unless they say otherwise; changes in a name come on top.
UniProt Q08345: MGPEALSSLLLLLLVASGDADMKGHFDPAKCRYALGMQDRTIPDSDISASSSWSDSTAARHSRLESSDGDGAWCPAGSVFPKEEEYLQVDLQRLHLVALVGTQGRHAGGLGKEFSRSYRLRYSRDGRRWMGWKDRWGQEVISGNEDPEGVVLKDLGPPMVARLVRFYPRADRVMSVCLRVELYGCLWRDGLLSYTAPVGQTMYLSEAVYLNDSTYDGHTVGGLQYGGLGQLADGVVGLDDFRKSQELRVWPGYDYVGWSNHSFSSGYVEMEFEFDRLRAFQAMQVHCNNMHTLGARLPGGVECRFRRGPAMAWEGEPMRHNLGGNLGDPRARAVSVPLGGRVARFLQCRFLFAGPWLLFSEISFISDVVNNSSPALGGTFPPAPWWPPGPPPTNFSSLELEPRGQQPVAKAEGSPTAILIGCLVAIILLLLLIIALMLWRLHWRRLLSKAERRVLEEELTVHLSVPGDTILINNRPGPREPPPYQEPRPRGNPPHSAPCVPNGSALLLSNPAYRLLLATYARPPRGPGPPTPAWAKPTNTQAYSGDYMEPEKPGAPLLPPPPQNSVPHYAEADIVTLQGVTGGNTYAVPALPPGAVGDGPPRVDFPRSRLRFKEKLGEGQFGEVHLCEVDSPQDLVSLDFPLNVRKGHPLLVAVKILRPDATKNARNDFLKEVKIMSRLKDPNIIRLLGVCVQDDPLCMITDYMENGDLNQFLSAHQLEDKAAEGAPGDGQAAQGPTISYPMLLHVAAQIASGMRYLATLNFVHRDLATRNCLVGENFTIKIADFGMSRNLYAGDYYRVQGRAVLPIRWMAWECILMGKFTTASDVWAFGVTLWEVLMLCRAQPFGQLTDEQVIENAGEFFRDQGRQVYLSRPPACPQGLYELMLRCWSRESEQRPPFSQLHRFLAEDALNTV

kinase-Nluc reporter destabilization hit call, inactive:
N#Cc1ccc2[nH]c(O)c(-c3ccc(CN4CCOCC4)cn3)c2c1 (10 µM) 0, O=C1NCCc2[nH]c(-c3ccnc(-c4cnc5ccccc5c4)c3)cc21 (10 µM) 0, Oc1cc(O)cc(/C=C/c2ccc(O)c(O)c2)c1 [Piceatannol] (10 µM) 0, O=C(NOC[C@H](O)CO)c1ccc(F)c(F)c1Nc1ccc(I)cc1F (2.5 µM) 0, Cn1c(=O)n(-c2ccc(C(C)(C)C#N)cc2)c2c3cc(-c4cnc5ccccc5c4)ccc3ncc21 [Dactolisib (Tosylate)] (10 µM) 0, CCCCNc1ncc(-c2ccc(CN3CCOCC3)cn2)c(NC2CCC(O)CC2)n1 (stereo not given) (10 µM) 0, O=C(Nc1cc(C(F)(F)F)ccc1N1CCN(Cc2ccccn2)CC1)c1ccc(-c2ccncc2)o1 (10 µM) 0, CC[C@H](CO)Nc1nc(NCc2ccccc2)c2ncn(C(C)C)c2n1 [Seliciclib] (10 µM) 0, COC(=O)c1ccc2c(C(=Nc3ccc(N(C)C(=O)CN4CCN(C)CC4)cc3)c3ccccc3)c(O)[nH]c2c1 [Nintedanib] (2.5 µM) 0, COc1cc(F)cc([C@@H](CO)NC(=O)[C@@H](C)N2Cc3ccc(-c4nc(NC5CCOCC5)ncc4Cl)cc3C2=O)c1 [ERK1/2 inhibitor 2] (10 µM) 0, CC(C)c1ccc2oc3nc(N)c(C(=O)O)cc3c(=O)c2c1 [Amlexanox] (10 µM) 0, CN(C)C[C@@H]1CCn2cc(c3ccccc32)C2=C(C(=O)NC2=O)c2cn(c3ccccc23)CCO1 [Ruboxistaurin (hydrochloride)] (10 µM) 0, CCc1nc(-c2cccc(C)c2)c(-c2ccnc(NC(=O)c3ccccc3)c2)s1 (10 µM) 0, CCOc1cc2ncc(-c3cc(N)nc(F)c3)n2cc1S(=O)(=O)C(C)(C)C (10 µM) 0, CC(C)(/C=C(\C#N)C(=O)N1CCC[C@@H](n2nc(-c3ccc(Oc4ccccc4)cc3F)c3c(N)ncnc32)C1)N1CCN(C2COC2)CC1 (2.5 µM) 0, CCCn1cnc2c(NCc3ccccc3)nc(NC(CC)CO)nc21 (stereo not given) [Ca2+ channel agonist 1] (2.5 µM) 0, Brc1c(Br)c(Br)c2n[nH]nc2c1Br (10 µM) 0, Nc1nc(OCC2CCCCC2)c2[nH]cnc2n1 (10 µM) 0, COc1ccc(Oc2cc(NCCC(F)(F)F)c3ncc(-c4ccc(C(=O)NC5CC5)c(C)c4)n3n2)c(F)c1F (2.5 µM) 0, COc1cc(C(=O)NC2CCN(C)CC2)c(F)cc1Nc1ncc2c(n1)N(C1CCCC1)CC(F)(F)C(=O)N2C [TAK-960 (dihydrochloride)] (2.5 µM) 0, COc1ccc(NC(=O)N2CCN(c3nc(N)nc4c3cnn4C)[C@@H](C)C2)c(C)c1 (10 µM) 0, O=C(Nc1ccc(-c2ccnc(Nc3ccc(N4CCOCC4)cc3)n2)cc1)C1CCCN1 (stereo not given) (10 µM) 0, COc1nccc(-c2c(-c3ccc(F)cc3)ncn2C2CCC(O)CC2)n1 (stereo not given) (10 µM) 0, NC(=O)c1ccc2nc(-c3ccc(Oc4ccc(Cl)cc4)cc3)[nH]c2c1 (10 µM) 0, Cc1cc(C)c(/C=C2\C(=O)Nc3ccccc32)[nH]1 [Semaxinib] (10 µM) 0, COc1ccc(COc2ccc(Cc3cnc(N)nc3N)cc2OC)cc1 (10 µM) 0, CN1CCN(c2ccc(Nc3cc(-c4cccc(-n5ccc6cc(C7CC7)cc(F)c6c5=O)c4CO)cn(C)c3=O)nc2)CC1 (2.5 µM) 0, C=CC(=O)N1CCC[C@@H](n2nc(-c3ccc(Oc4ccccc4)cc3)c(C(N)=O)c2N)C1 [Btk inhibitor 2] (10 µM) 0, Cc1c(NC(=O)c2cc3c(s2)CCCC3)cccc1-c1cn(C)c(=O)c(Nc2ccc([C@@H]3C(=O)N(C)CCN3C)cc2)n1 (10 µM) 0, CCOc1ccn(-c2ccc(F)cc2)c(=O)c1C(=O)Nc1ccc(Oc2ccnc(N)c2Cl)c(F)c1 (10 µM) 0, CCn1c(=O)c2cc(C(N)=O)c(N)nc2n(C2CC2)c1=O (10 µM) 0, COc1cc(C(=O)NC2CCN(C)CC2)ccc1Nc1ncc2c(n1)N(C1CCCC1)CC(F)(F)C(=O)N2C (10 µM) 0, CCN1CCN(c2ccc(Nc3cc(N(C)C(=O)Nc4c(Cl)c(OC)cc(OC)c4Cl)ncn3)cc2)CC1 [Infigratinib] (10 µM) 0, CN1CCN(S(=O)(=O)c2ccc(-c3cnc(N)c(C(=O)Nc4cccnc4)n3)cc2)CC1 (10 µM) 0, Cc1cccc([C@@H](CO)NC(=O)[C@@H](C)N2Cc3ccc(-c4nc(NC5CCOCC5)ncc4Cl)cc3C2=O)c1 [ERK1/2 inhibitor 1] (10 µM) 0, COc1cc(CCc2cc(-c3nc4ccc(N5CCN(C)CC5)cc4[nH]3)n[nH]2)cc(OC)c1 (10 µM) 0, Cc1cc(CS(=O)(=O)c2ccccc2)cc(OCc2ccc(CN3CCC[C@@H]3CO)cc2)c1 [PF-543 (Citrate)] (10 µM) 0, Cc1[nH]c(/C=C2\C(=O)Nc3ccc(S(=O)(=O)Cc4c(Cl)cccc4Cl)cc32)c(C)c1C(=O)N1CCC[C@@H]1CN1CCCC1 (2.5 µM) 0, Cc1cc(F)c(C(=O)Nc2cccc(-c3nncn3C(C)C)n2)cc1-n1cnc(C2CC2)c1 [Selonsertib] (10 µM) 0, COCCOc1cc2nccc(Nc3n[nH]c(C)c3C)c2cc1S(=O)(=O)C(C)(C)C [RIP2 kinase inhibitor 2] (2.5 µM) 0

Reference: the supplement of paper PMC12823440, “Inhibitors supercharge kinase turnover through native proteolytic circuits” (Nature, 2025)
